PubChem BioAssay AID1259405 – NCATS – 2018
Aim: 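Mouse-designed siRNAs used to find CHO productivity engineering targets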 (primary screen). Cell system: Chinese hamster CHO-K1 ovary cells with stable secreted eGFP expression. Reagent: single siRNA against mouse genes, 0.8 pmol siRNA per well (2 µl of 400 nM stock). Timing: 3 days. Measured: 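Percent of the per-plate non-targeting control median for intracellular GFP per well by laser scanning cytometry and for cell viability by ATP luminescence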. Scale: GFP, % of control: higher = more GFP per well, higher productivity; viability (ATP), % of control: higher = more viable cells (more ATP). Active means: 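a knock-down is called active if GFP reaches 120% or more of non-targeting control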.
Shown is one part, drawn at random, of about 50,000 reagents. About 4,000 of them (8%) were called active. 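Mouse siRNA library applied to hamster cells; one well for each siRNA.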 The numbers tell different reagents against one gene apart.

gene	reagent	GFP, % of control	viability (ATP), % of control	call
Cdpf1 (GeneID 72355)	1	79.2	54.8	inactive
Cdpf1 (GeneID 72355)	2	77.9	103	inactive
Cdpf1 (GeneID 72355)	3	70.9	82.1	inactive
Tectb (GeneID 21684)	1	154	70.5	active
Tectb (GeneID 21684)	2	84.8	113	inactive
Tectb (GeneID 21684)	3	70.9	91.3	inactive
Myo19 (GeneID 66196)	1	42.3	61.3	inactive
Myo19 (GeneID 66196)	2	44.9	53.7	inactive
Myo19 (GeneID 66196)	3	83.6	69	inactive
B3gnt3 (GeneID 72297)	1	98.6	68.5	inactive
B3gnt3 (GeneID 72297)	2	120	115	inactive
B3gnt3 (GeneID 72297)	3	142	104	active
Mapk4 (GeneID 225724)	1	72.6	84	inactive
Trp53inp1 (GeneID 60599)	1	97.6	92.4	inactive
Trp53inp1 (GeneID 60599)	2	109	96.3	inactive
Trp53inp1 (GeneID 60599)	3	140	102	active
Rad51c (GeneID 114714)	1	94.4	51.2	inactive
Rad51c (GeneID 114714)	2	78.1	92.3	inactive
Rad51c (GeneID 114714)	3	54.1	42.3	inactive
Adipor1 (GeneID 72674)	1	87.4	58	inactive
Adipor1 (GeneID 72674)	2	66.5	59.1	inactive
Adipor1 (GeneID 72674)	3	84.7	67.8	inactive

Quoted from the listing for reference:
gene	reagent	GFP, % of control	viability (ATP), % of control	call
B3gnt3 (GeneID 72297)	1	98.6	68.5	inactive
B3gnt3 (GeneID 72297)	2	120	115	inactive
B3gnt3 (GeneID 72297)	3	142	104	active
Mapk4 (GeneID 225724)	1	72.6	84	inactive
Trp53inp1 (GeneID 60599)	1	97.6	92.4	inactive
Trp53inp1 (GeneID 60599)	2	109	96.3	inactive

The list goes on:
gene	reagent	GFP, % of control	viability (ATP), % of control	call
Gpsm1 (GeneID 67839)	1	65.6	46.6	inactive
Gpsm1 (GeneID 67839)	2	89.3	90.1	inactive
Gpsm1 (GeneID 67839)	3	53.9	48.3	inactive
Or52m1 (GeneID 258322)	1	137	94.5	active
Or52m1 (GeneID 258322)	2	75.5	73.2	inactive
Or52m1 (GeneID 258322)	3	64.5	97.6	inactive
Fam124b (GeneID 241128)	1	22.4	36	inactive
Fam124b (GeneID 241128)	2	62.3	73.7	inactive
Fam124b (GeneID 241128)	3	75.8	76.4	inactive
Spdye4a (GeneID 74673)	1	114	63.9	inactive
Spdye4a (GeneID 74673)	2	79.8	66.5	inactive
Spdye4a (GeneID 74673)	3	52.1	73.3	inactive
Uchl1 (GeneID 22223)	1	82.5	69.6	inactive
Uchl1 (GeneID 22223)	2	87.3	84.7	inactive
Uchl1 (GeneID 22223)	3	66.6	81.6	inactive
Slc35f6 (GeneID 74919)	1	103	100	inactive
Slc35f6 (GeneID 74919)	2	49.2	33.8	inactive
Slc35f6 (GeneID 74919)	3	96.4	94.5	inactive
Epn1 (GeneID 13854)	1	83.4	90.6	inactive
Epn1 (GeneID 13854)	2	86.5	73.3	inactive
Ube2g2 (GeneID 22213)	1	35.4	51.5	inactive
Ube2g2 (GeneID 22213)	2	106	80.6	inactive
Ube2g2 (GeneID 22213)	3	96.9	125	inactive
BC031181 (GeneID 407819)	1	96.9	88.2	inactive
BC031181 (GeneID 407819)	2	67	85.2	inactive
BC031181 (GeneID 407819)	3	163	114	active
Siah1b (GeneID 20438)	1	57.3	36.6	inactive
Siah1b (GeneID 20438)	2	105	75.4	inactive
Siah1b (GeneID 20438)	3	56.5	62.8	inactive
Pofut2 (GeneID 80294)	1	43.9	28.7	inactive
Pofut2 (GeneID 80294)	2	77.5	63.7	inactive
Pofut2 (GeneID 80294)	3	62.7	85.2	inactive
Cimap2 (GeneID 242602)	1	34.5	23.9	inactive
Cimap2 (GeneID 242602)	2	97.8	89.9	inactive
Cimap2 (GeneID 242602)	3	73.5	70.6	inactive
